PubChem BioAssay AID1259254, NCATS | 2017

- Aim: 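Gene knock-downs that lead to re-replication, shown by excess G2 DNA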 (primary screen)
- Cells: human HCT116 colorectal cancer cells
- Reagent: single siRNA against human genes
- Duration: 3 days
- Detection: 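Imaged Hoechst DNA stain sorts each cell into a cycle phase by DNA amount; per plate, G2 fraction set to 0% for non-targeting and 100% for GMNN siRNA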
- Direction: G2 robust z-score and G2 cells, % of GMNN control: higher = more G2 cells, more excess DNA replication; raw share of cells in G2: higher = larger share of cells with G2 DNA content
- Active means: 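Active siRNAs have a G2 robust z of 5 or more median absolute deviations over the median, which in these data means about 38% or higher of GMNN control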
This is one part, drawn at random, of about 59,000 deposited reagents. About 1,550 of all reagents (2.6%) were called active. 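G2 share is only a proxy for re-replication; each gene was hit by three separate siRNAs, and active genes were retested.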 Raw values are not corrected between plates. Reagents against one gene are numbered here. No sequences are given here. The record does not give: the amount of reagent.

| Gene | reagent no. | G2 robust z-score | G2 cells, % of GMNN control | raw share of cells in G2 (%) | Call |
| --- | --- | --- | --- | --- | --- |
| AQP11 (aquaporin 11) | 1 | 0.783 | 8.48 | 8.26 | inactive |
| AQP11 (aquaporin 11) | 2 | 1.7 | 14.9 | 13.1 | inactive |
| AQP11 (aquaporin 11) | 3 | 5.11 | 38.9 | 18.9 | active |
| LOC387939 (retired record) | 1 | 2.19 | 18.3 | 12.5 | inactive |
| LOC387939 (retired record) | 2 | -0.0855 | 2.37 | 4.58 | inactive |
| LOC387939 (retired record) | 3 | 7.05 | 52.6 | 26.3 | active |
| ACTRT1 (actin related protein T1) | 1 | 3.07 | 24.6 | 13.7 | inactive |
| ACTRT1 (actin related protein T1) | 2 | 3 | 24.1 | 14.8 | inactive |
| ACTRT1 (actin related protein T1) | 3 | 0.0138 | 3.06 | 7.42 | inactive |
| TYSND1 (trypsin like peroxisomal matrix peptidase 1) | 1 | -0.558 | -0.956 | 5.19 | inactive |
| TYSND1 (trypsin like peroxisomal matrix peptidase 1) | 2 | 1.14 | 11 | 8.08 | inactive |
| TYSND1 (trypsin like peroxisomal matrix peptidase 1) | 3 | 1.54 | 13.8 | 9.4 | inactive |
| MAP2K4 (mitogen-activated protein kinase kinase 4) | 1 | -1.18 | -5.34 | 3.84 | inactive |
| MAP2K4 (mitogen-activated protein kinase kinase 4) | 2 | -1.17 | -5.24 | 2.18 | inactive |
| MAP2K4 (mitogen-activated protein kinase kinase 4) | 3 | 2.28 | 19 | 11.8 | inactive |
| BCKDHA (branched chain keto acid dehydrogenase E1 subunit alpha) | 1 | 0.91 | 9.37 | 7.91 | inactive |
| BCKDHA (branched chain keto acid dehydrogenase E1 subunit alpha) | 2 | 8.08 | 59.8 | 26.4 | active |
| BCKDHA (branched chain keto acid dehydrogenase E1 subunit alpha) | 3 | -0.0653 | 2.51 | 4.92 | inactive |

Sorted by “G2 robust z-score” (low to high): 4 of the entries above.
| Gene | reagent no. | G2 robust z-score | G2 cells, % of GMNN control | raw share of cells in G2 (%) | Call |
| --- | --- | --- | --- | --- | --- |
| MAP2K4 (mitogen-activated protein kinase kinase 4) | 2 | -1.17 | -5.24 | 2.18 | inactive |
| BCKDHA (branched chain keto acid dehydrogenase E1 subunit alpha) | 1 | 0.91 | 9.37 | 7.91 | inactive |
| MAP2K4 (mitogen-activated protein kinase kinase 4) | 3 | 2.28 | 19 | 11.8 | inactive |
| BCKDHA (branched chain keto acid dehydrogenase E1 subunit alpha) | 2 | 8.08 | 59.8 | 26.4 | active |

The listing continues.
| Gene | reagent no. | G2 robust z-score | G2 cells, % of GMNN control | raw share of cells in G2 (%) | Call |
| --- | --- | --- | --- | --- | --- |
| C2orf81 (chromosome 2 open reading frame 81) | 1 | -1.12 | -4.91 | 2.09 | inactive |
| C2orf81 (chromosome 2 open reading frame 81) | 2 | -0.737 | -2.22 | 2.44 | inactive |
| C2orf81 (chromosome 2 open reading frame 81) | 3 | -0.074 | 2.45 | 5.68 | inactive |
| NPFFR2 (neuropeptide FF receptor 2) | 1 | -0.261 | 1.13 | 6.25 | inactive |
| NPFFR2 (neuropeptide FF receptor 2) | 2 | -0.252 | 1.19 | 4.93 | inactive |
| NPFFR2 (neuropeptide FF receptor 2) | 3 | 0.0601 | 3.39 | 4.31 | inactive |
| TSSK2 (testis specific serine kinase 2) | 1 | -1.27 | -5.97 | 3.73 | inactive |
| TSSK2 (testis specific serine kinase 2) | 2 | -0.415 | 0.0495 | 5.21 | inactive |
| TSSK2 (testis specific serine kinase 2) | 3 | -0.507 | -0.598 | 3.49 | inactive |
| FBXW9 (F-box and WD repeat domain containing 9) | 1 | -1.58 | -8.15 | 1.39 | inactive |
| FBXW9 (F-box and WD repeat domain containing 9) | 2 | -0.98 | -3.93 | 2.29 | inactive |
| FBXW9 (F-box and WD repeat domain containing 9) | 3 | -0.789 | -2.58 | 1.62 | inactive |
